Experimental findings from ChEMBL document CHEMBL3885861, “Open TG-GATES” are described below.

This data set is filed under the species Rattus norvegicus. Nature of the data set: Open TG-GATES - Regimen: Daily Repeat. The class given is toxicity, organism-based, Sprague-Dawley. The arrangement: regimen Daily Repeat, gender Male, age 6 weeks. The note with it: in vivo, po, route gavage; for LIVER: tissue Liver.
The mark [1] stands for this setting: 20 mg/kg, 72 h, tissue Blood, dose level Low, time 3 day.
[2] abbreviates: 20 mg/kg, […], tissue Blood, dose level Low, time 7 day.
Setting [3] is: 20 mg/kg, […], tissue Plasma, dose level Low, time 7 day.
Where [4] appears, read: 60 mg/kg, […], tissue Blood, dose level Middle, time 7 day.
Setting [5] is: 60 mg/kg, […], tissue Blood, dose level Middle, time 28 day.
Where [6] appears, read: 200 mg/kg, 72 h, tissue Plasma, dose level High, time 3 day.

Under “0 mg/kg, 72 h, tissue Blood, dose level Control, time 3 day”, `CCCCc1oc2ccccc2c1C(=O)c1cc(I)c(OCCN(CC)CC)c(I)c1` [AMIODARONE] yielded an MCH of 21.4 pg. Also, the MCHC was determined as 34.3% (0 mg/kg, […], tissue Blood, dose level Control, time 7 day); 34.7% under setting [1]; 34.5% (20 mg/kg, […], tissue Blood, dose level Low, time 14 day). The PT runs as follows: (0 mg/kg, […], tissue Blood, dose level Control, time 14 day) 12.6 s; under setting [2], 12.5 s; (60 mg/kg, […], tissue Blood, dose level Middle, time 14 day) 12.6 s; under setting [5], 12.5 s. This compound also showed a TC (0 mg/kg, […], tissue Plasma, dose level Control, time 14 day) of 80.4 mg/dL. Further, the APTT under setting [1] was determined as 18.4 s. The Hb under setting [2] is given as 13.3 g/dL; the Hb (20 mg/kg, […], tissue Blood, dose level Low, time 28 day) is listed as 15.2 g/dL; the Hb under setting [5] was 14.7 g/dL. Moreover, the BUN under setting [3] was 15.2 mg/dL. Under setting [3], this compound registered a PL of 143 mg/dL. Besides, the AST was determined as 68.6 IU/L (60 mg/kg, 72 h, tissue Plasma, dose level Middle, time 3 day) and 71.4 IU/L under setting [6]. Under setting [4], the Ht is given as 38.2%. Also, the MCV under setting [4] amounted to 61.5 fL. For the same compound, the LIVER runs as follows: (60 mg/kg, […], dose level Middle, time 7 day) 12.9 g; (200 mg/kg, […], dose level High, time 28 day) 11.7 g. Under setting [6], this compound registered an ALT of 43.6 IU/L. The compound also yielded a TG (200 mg/kg, […], tissue Plasma, dose level High, time 14 day) of 18.8 mg/dL.
